# Assay results

From PubChem BioAssay record AID1159506 (NCATS, 2015).

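Genome-wide siRNA knockdown in TC32 Ewing sarcoma cells, comparing luciferase light from an NR0B1-promoter reporter with a CMV-promoter reporter 48 hours after transfection.
Each siRNA was applied at 20 nM.
A z-score of the log NR0B1-over-CMV signal, less the median of siRNAs with the same seed; more negative means a stronger specific loss of the NR0B1 reporter.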

This is part of the screen; most of the strongest results are not listed here.
Sequences are the guide (antisense) strand, without overhang.

strand | target gene | seed-corrected z-score
AUAGUAAGAAACUCUGCUC | MPHOSPH6 | -1.788
UGCCUGACUAGAAAGCAGC | C4orf17 | 0.2653
AAACUCGUCGGCAUCGUUC | GRXCR1 | 3.092
UAAGUCUAAAUUAUCUACC | ZNF182 | -0.2504
UUCUUAAGACGGCAUAUUC | RSPH10B | -1.44
UUCCGGAACCUGUUCUUCC | ABCC12 | 0.5781
UGUGCACUGACUCUGAUUG | OTOF | -0.07878
UAACAUGCGCUCAAAGAGC | CAPN5 | -0.5531
UUAUCUUCUGGGAUUGAUG | ZNF570 | 0.6371
UGAAGUAAAGAGUUCAUCC | SCFD2 | 0.4296
AGACUGUAAAUGUACUUCC | CNGA3 | -1.852
UAACAUGUCAAGCACAUCA | GM2A | 0.9981
UUGUUGCUUAGGUCAAGCC | LRRC40 | -0.1958
AUGGGAGUAAGGACCGUGU | OR2V2 | -1.642
UUCUUUAGCGAGGUGAUGG | RAD54L | -1.731
UCACGAAUAAAGAUCACGG | C4orf22 | -0.69
AACGUAUCAUCUGUGAACC | RAB18 | -0.2109
UUAGCUUCCGGGAUAAGAG | RNF20 | 0.9696
UGACUUAUCUGUCACAUAC | MOSPD2 | 0.1506
UGUGAUUAUACCAUCAGGG | ROPN1 | 0.1011
AAUCAGAACCAGGUUGUCC | ZNF362 | -0.8309
UCUUGUUAGAUGUAGACAC | ZKSCAN2 | 0.4324
UGAAUUCCACUGGUUCUCC | LIN28B | -0.005565
UCUUGUCGCAGUUGUAUUU | UBA52 | -1.391
UCUCAUCCAGGUGAUACCC | FAM219B | -0.1242
UAUCGAUGAAUUCCUGGAC | BCS1L | 0.2371
UACGAGGAUAUGUACCAGC | ARHGAP5 | -0.6023
UAGAGUACAGUCGCAGUGC | LRRC3B | 0.4739
UUACGUAAUUUUCCAGUUG | POLB | -0.6197
AAAGAUAUCUGAUCGGUGC | SCGB1D4 | 0.01572
UCUGCUCCAUGGUCGUUCG | C22orf29 | -0.00448
UGAUGUUGUGGUCUAAUUC | SMC2 | 0.8621
UAUCAUUAAUUAAUGCUCG | GPR137C | 1.075
AAAGCGACGGUCUUUGUGG | RHOBTB2 | 0.5338
AAAAGCACGAAGUACACCG | H2AFY | 0.4477
UAGGGUUACUCUUUUCUAC | GBP4 | -0.4534
UUUGUAGCCCUUAUAGGAG | TREML2 | 0.3001
UUAAUGUCAUCUGAGGUUG | DNAJC5 | -1.029
UACAGAUCAACCUCUCAUU | ZBTB34 | 0.8121
AAUUCCACAACAAUGCAGC | TSPAN3 | 0.8224
UUGCUGUUGACUAUGAAGG | TUBA3FP | 1.297
UCUAGUGCCUCCUUCUUGG | DNAH12 | 0.4307
AUGGACAACACGAAGAGCG | TMIE | 0.4893
UUCGUAAUGUCUCUUGAGC | KIAA0430 | 0.3068
UAUAACUCUUGUGCUGUUC | NOS3 | -0.06788
AAAAUUUGUAUUGGAAUCC | ISCA2 | 0.6072
AUAGAAUCUAUAAAGACCG | ENKUR | -0.4698
UCUGUAAUGAACAUCCAUG | GOLGA8B | 0.09139
UCAUGGACUCGCAAUUUUG | PLCZ1 | -0.4847
UCCUGGAUACUUCUGGUUG | GALNT8 | 0.1827
UAAGCGUGAGGUGAUACCC | ABCA12 | -0.01802
UUGGUGUAACAUAAUGCUC | TTC6 | -0.2192
UCCUUGUAGACGAAGGUGC | PDE6A | 0.6464
UGAGUGAAGGCGGUGUUGU | TMEM30B | -0.3399
UCUGAUUAAGUUUUGAUGC | ILKAP | 0.4307

For reference, 3 entries once more:

strand,target gene,seed-corrected z-score
UUCUUUAGCGAGGUGAUGG,RAD54L,-1.731
AUGGGAGUAAGGACCGUGU,OR2V2,-1.642
UCCUGGAUACUUCUGGUUG,GALNT8,0.1827